From patent publication US6639078B1, “Assays for ligands for nuclear receptors” (SmithKline Beecham Corporation, priority 1998, dated 2003)
For at least one compound, name, drawing or mass did not settle the structure.

Legend:
human FXR LBD [1] = target: T1, human FXR LBD (Homo sapiens, UniProt Q96RI1); test: FRET ligand-sensing assay in the presence of 50 μM CDCA (competition with CDCA for FXR binding)
T1 sequence (Q96RI1 222-472 isoform Q96RI1-2): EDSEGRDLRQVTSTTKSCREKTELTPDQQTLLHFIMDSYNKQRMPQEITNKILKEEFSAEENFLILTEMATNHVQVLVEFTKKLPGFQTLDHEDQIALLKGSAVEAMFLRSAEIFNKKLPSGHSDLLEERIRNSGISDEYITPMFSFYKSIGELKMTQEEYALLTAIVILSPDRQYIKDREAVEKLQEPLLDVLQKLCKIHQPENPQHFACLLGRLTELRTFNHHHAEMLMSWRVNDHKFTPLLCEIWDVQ

full-length human FXR = target: T2, full-length human FXR (Homo sapiens, UniProt Q96RI1); test: CAT reporter assay in CV-1 cells transfected with FXR, human RXRα and FXREhsp27-tk-CAT; settings: 100 μM bile acid or farnesol, 10 μM steroid or TTNPB
T2 sequence (Q96RI1 1-472 isoform Q96RI1-2): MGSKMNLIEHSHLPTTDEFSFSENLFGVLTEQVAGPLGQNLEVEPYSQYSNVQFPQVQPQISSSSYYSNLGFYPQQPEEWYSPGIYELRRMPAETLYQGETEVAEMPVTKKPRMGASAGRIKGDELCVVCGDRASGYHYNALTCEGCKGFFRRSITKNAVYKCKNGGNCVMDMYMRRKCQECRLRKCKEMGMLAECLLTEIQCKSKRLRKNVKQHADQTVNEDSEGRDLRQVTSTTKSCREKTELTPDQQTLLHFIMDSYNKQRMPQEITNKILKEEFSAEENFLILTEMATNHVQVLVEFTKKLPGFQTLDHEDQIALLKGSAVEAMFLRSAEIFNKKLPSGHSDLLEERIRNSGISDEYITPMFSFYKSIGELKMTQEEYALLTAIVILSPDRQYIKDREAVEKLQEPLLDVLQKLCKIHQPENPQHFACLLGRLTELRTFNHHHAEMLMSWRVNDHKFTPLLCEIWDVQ
T2 sequence (P19793 1-462 partner): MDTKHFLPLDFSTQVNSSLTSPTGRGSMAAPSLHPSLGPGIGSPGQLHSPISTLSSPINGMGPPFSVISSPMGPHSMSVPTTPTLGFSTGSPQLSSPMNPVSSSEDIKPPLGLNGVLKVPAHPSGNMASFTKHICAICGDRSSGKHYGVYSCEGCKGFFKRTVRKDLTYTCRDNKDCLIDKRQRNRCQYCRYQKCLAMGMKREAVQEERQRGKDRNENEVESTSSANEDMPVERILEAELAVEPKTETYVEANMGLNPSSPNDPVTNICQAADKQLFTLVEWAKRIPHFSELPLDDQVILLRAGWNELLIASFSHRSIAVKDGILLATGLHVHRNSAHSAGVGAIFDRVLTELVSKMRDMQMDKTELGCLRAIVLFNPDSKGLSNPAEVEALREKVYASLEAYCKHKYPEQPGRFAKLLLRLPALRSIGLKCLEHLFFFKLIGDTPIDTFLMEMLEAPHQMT

human FXR LBD [2] = target: T1, human FXR LBD; test: FRET ligand-sensing assay: SRC1 peptide binding to FXR LBD; settings: 100 μM compound (FIG. 3A/4a)
full-length murine FXR = target: T3, full-length murine FXR (Mus musculus, UniProt Q60641); test: CAT reporter assay in CV-1 cells transfected with FXR, human RXRα and FXREhsp27-tk-CAT; settings: 100 μM bile acid
T3 sequence (Q60641 1-488): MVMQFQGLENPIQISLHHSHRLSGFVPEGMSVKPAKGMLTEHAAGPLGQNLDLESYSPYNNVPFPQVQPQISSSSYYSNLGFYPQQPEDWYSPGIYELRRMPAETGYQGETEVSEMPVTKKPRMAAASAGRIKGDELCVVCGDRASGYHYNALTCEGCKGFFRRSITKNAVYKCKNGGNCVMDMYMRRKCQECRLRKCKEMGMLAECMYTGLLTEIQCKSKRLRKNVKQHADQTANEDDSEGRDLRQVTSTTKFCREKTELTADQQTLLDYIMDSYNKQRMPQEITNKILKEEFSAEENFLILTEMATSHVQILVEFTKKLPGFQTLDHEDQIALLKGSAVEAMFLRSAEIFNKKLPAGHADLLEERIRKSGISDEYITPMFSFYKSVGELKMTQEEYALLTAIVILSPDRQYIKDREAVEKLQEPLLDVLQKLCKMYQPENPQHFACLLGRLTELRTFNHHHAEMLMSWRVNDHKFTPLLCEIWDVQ
T3 sequence (P19793 1-462 partner): T2 sequence (P19793 1-462 partner)

Row | SMILES | effect on CDCA-FXR-SRC1 complex (fluorescence signal) (human FXR LBD [1]) | activation of full-length human FXR (full-length human FXR) | effect on interaction between FXR LBD and SRC1 peptide (human FXR LBD [2]) | effect on interaction between FXR LBD and SRC1 peptide (human FXR LBD [2]; listed as deoxycholic acid) | activation of full-length murine FXR (full-length murine FXR)
1 | C[C@H](CCC(=O)O)[C@H]1CC[C@H]2[C@@H]3CC[C@@H]4C[C@H](O)CC[C@]4(C)[C@H]3C[C@H](O)[C@]12C [DCA, deoxycholic acid] | disrupted the CDCA-FXR-SRC1 complex in a dose-dependent fashion | activated | did not promote interactions | no effect | activated
2 | C[C@H](CCC(=O)O)[C@H]1CC[C@H]2[C@@H]3CC[C@@H]4C[C@H](O)CC[C@]4(C)[C@H]3CC[C@]12C [LCA, lithocholic acid] |  | activated |  |  | activated
